This is a selection; strong and weak results do not stand in their true shares. Results filed as inconclusive are left out. Calls of active or inactive are those of the source. Cut-off read from the data, not from the text of the source: active = activity change below about -60%; inconclusive = no clear call, values can overlap the other calls; inactive = above about -39%.
Test: qHTS Assay for inhibitors of the human cytomegalovirus (HCMV)
Details: HFF cells, HCMV-luciferase reporter, 72 h; at 57.5 µM; active compounds read low
From the text: NCGC Assay Overview: Infection with human cytomegalovirus (HCMV) continues to pose significant threats for pregnant women and immunocompromised hosts. HCMV causes serious morbidity and mortality in transplant recipients, and congenital HCMV is the leading infectious cause of mental retardation and deafness in children. In the 1990s, the annual costs associated with the disease burden of congenital CMV were estimated at around $2 billion. A HCMV vaccine is not available yet and HCMV therapies result in intolerable side effects and emergence of drug resistant viruses. […] Towards this goal we have developed and characterized a luciferase HCMV reporter that was initially used in 96 well plates and then optimized to 1536-well plates for utilization in screening of the MLSMR collection, the NGCG diversity collection and the NCGC Pharmaceutical Collection of approved and investigational drugs.
NCGC Assay Protocol Summary:
This is a cell-based assay for HCMV inhibition in HFFs cells. The screening used 2 compound doses and the HCMV-luciferase at MOI of 1 PFU/cell. Cells were treated and infected with HCMV. At 72 h post infection cell lysates were collected and luciferase activity was determined using the Glomax-Multi + Detection System (Promega, Madison, WI). Data were normalized to the controls for basal activity (buffer only) and known HCMV inhibitors Salinmoycin.
1536-well assay protocol for the assay:
(1) Add 3 ul CMV/HFF cell culture. 1000 cells/well in DMEM nirmal media.
(2) Incubate 16 hr at 37C.
(3) Add 23 nl control compound, 10uM of Salinomycin.
(4) Add 23 nl compounds in DMSO solution.
(5) Add 3 ul CMV suspension. Final 1 puf/ul, Virus stock 2000pfu/ul
(6) Incubate 72 hrs at 37C.
(7) Add 4 ul OneGlo Luc Reagent.
(8) Incubate 5 min at room temperature.
% is set by controls: 0 for no effect and ±100 for the full control effect.

Compound | activity change, negative = inhibition
CC(C)(C)c1ccc(-n2ncc3c2CCCC3NC(=O)CCN2CCCC2=O)cc1 (stereo not given) | active: -67.2%
COc1ccccc1C(=O)NNC(=S)NC(=O)c1ccco1 | active: -81.9%
O=C(CCCCCCC(=O)Nc1ccccc1)NO | active: -76.4%
CN1CCN(C(=O)COc2ccc(-c3nc4ccccc4s3)cc2)CC1 | active: -67.3%
CN(C)C(=O)c1cccc(COc2ccc(N3C(N)=NC(N)=NC3(C)C)cc2Cl)c1 | active: -101%

From PubChem BioAssay AID1259415 (National Center for Advancing Translational Sciences (NCATS), 2018)
